Cell number change and AC50 data for 15 compounds are collected here from PubChem BioAssay AID2685 (National Center for Advancing Translational Sciences (NCATS), 2010).

The nature of the assay: qHTS Assay for Lipid Storage Modulators in Drosophila S3 Cells.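 For Cell number change: cells counted by Cell Tracker Red CMTPX staining in the red channel.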 Particulars: BODIPY lipid droplet fluorescence, 18-24 h; for cell number change: measured here: cell count max response, cells fed with added oleic acid. The method in brief: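 Drosophila S3 cells loaded with oleic acid (400 uM, as added) and compounds at several concentrations; lipid droplets imaged by 488-nm laser-scanning cytometry, 500–530 nm intensity and object ratio to cell channel. Percent activity normalized to 20 uM Triacsin C.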

The mark [1] stands for this setting: measured here: cell number channel AC50, cells fed with added oleic acid.
[2] abbreviates: measured here: lipid fluorescence (Fed channel) AC50, cells fed with added oleic acid.

The other results are listed elsewhere or left out. Further columns of the screen follow, without active or inactive calls. Compounds called inactive in the main read-out are mostly missing here. The note in brackets gives the kind of curve behind each potency; many fits are weak.

In the case of `CC(=O)Nc1cccc(Oc2ncnc3scc(-c4ccc(C(C)C)cc4)c23)c1`, the cell number change was 36.8%. Also, the AC50 under setting [1] was 8.2 µM [rising, partial curve]. Further, the half-maximal activity concentration (AC50) under setting [2] is 8.2 µM [rising, partial curve].
With `Cc1ccc2nc(C)c(C(=O)N/N=C/c3ccc(N4CCOCC4)cc3)cc2c1`, the cell number change was found to be 14.9%. In addition, under setting [2], the AC50 was 4.11 µM [rising, partial curve].
For the compound `COc1cccc(N2CCN(S(=O)(=O)c3ccc4nc(-c5ccccc5)[nH]c4c3)CC2)c1`, the AC50 is 0.651 µM [rising, single point] under setting [1] and 2.31 µM [rising, partial curve] under setting [2].
With `CCN1CCN(C(=O)CN(c2ccc(F)cc2)S(=O)(=O)c2ccc(OC)c(OC)c2)CC1`, the cell number change is 4.95%.
For the compound `Cc1ccc(C(=O)NNC(=O)c2ccc(SCC3CCCO3)c([N+](=O)[O-])c2)cc1` (configuration not stated), the cell number change was determined as 13.4%. Also, under setting [2], the AC50 is 2.91 µM [rising, partial curve].
As to `Cc1ccc2nsnc2c1NC(=O)COc1ccccc1`, the cell number change is -33%. For the same compound, under setting [1], the AC50 is 0.164 µM [falling, full curve, poor fit]. In addition, the AC50 under setting [2] was 18.4 µM [falling, partial curve, poor fit].
For the compound `Cc1cccc(N2CCN(S(C)(=O)=O)CC2)c1C`, the cell number change was found to be 1.2%. Moreover, the concentration at half-maximal activity (AC50) under setting [2] was 29.1 µM [rising, single point].
As for `CCOC(=O)COc1cc2c(C(=O)OCC)c(C)oc2cc1Br`, the cell number change is -1.88%.
Same read-out and setting: the value for `Cc1nnn(-c2nonc2N)c1C(=O)NNC(=O)c1ccc(Cl)c(Cl)c1` was 31.7%.
As for `Cc1ccc(C(=O)N2CCCC(CCC(=O)N3CCN(c4ccccn4)CC3)C2)cc1C` (configuration not stated), the cell number change was -5.1%. Under setting [2], the AC50 was 29.1 µM [falling, single point].
In the case of `CC(C)CC1NC(=O)c2ccccc2-n2c1nc1cc(F)ccc1c2=O` (configuration not stated), the cell number change is -23.6%. Under setting [1], the AC50 was 0.58 µM [falling, single point]. For the same compound, the AC50 under setting [2] is 9.2 µM [rising, partial curve].
As for `COc1ccc(C(=O)N2CCN(c3ccc(C)c(C)c3)CC2)cc1OC`, the cell number change was -33.3%. Moreover, the AC50 under setting [1] is 29.1 µM [falling, single point]. Also, the AC50 under setting [2] was 29.1 µM [falling, partial curve, poor fit].
Consider `CNC(=O)c1c(NC(=O)CCS(=O)(=O)c2ccc(F)cc2)sc(C)c1C`, for which the cell number change amounted to 29.7%. Also, the AC50 under setting [1] is 1.16 µM [rising, full curve, poor fit].
On to `C/C(=C\C(=O)c1ccccc1)NNC(=O)c1ccc(Cl)cc1`, for which the cell number change stood at 5.47%. In addition, under setting [1], the AC50 is 0.164 µM [rising, full curve, poor fit].
With `CC(C)NC(=O)NC(=O)CSc1nnc(COc2ccccc2F)n1C(C)C1CC2CCC1C2` (configuration not stated), the cell number change was -59.1%. Besides, the AC50 under setting [1] was 29.1 µM [falling, single point]. Under setting [2], the half-maximal activity concentration (AC50) is 2.91 µM [falling, single point].
